Experimental data from patent publication US20110281896A1, “OPTICALLY PURE QUINAZOLINE COMPOUNDS” (Jiangsu Hansoh Pharmaceutical Co. Ltd, priority 2009, published 2011).

These compounds were tested on human lung cancer Calu-3 xenografts (assay: Effect on xenografts in nude mice with lung cancer Calu-3). Conditions: D16, drug group vs. vehicle control; PO QD × 17; 146.5-146.7 mg/kg.
Assay type: in vivo, BALB/cA-nude mice
Method: Effect of compound 97(±), compound 97, compound 110 and Lapatinib (positive control) on xenografts in nude mice with lung cancer Calu-3 Remark: “±” means the compound is racemic.
The purpose of the experiment is to evaluate and compare the effect of compound 97(±), compound 97, compound 110, Lapatinib on xenografts in nude mice with lung cancer Calu-3.
BALB/cA-nude mice, 6-7 weeks, ♀, purchased from ShangHai Slac laboratory animal Co., Ltd.
Calu-3 cells were injected subcutaneously into nude mice. Animals were divided into groups (d0) randomly after tumors have grown to 150-300 mm^3. Dosage and dosage regimen design can be seen in table 1. Tumors volume was measured 2-3 times per week. Mice were weighed and data were recorded. Calculation formula for tumor volume (V) is as below:
V=½×a×b^2, wherein, a and b represent length and width respectively.
For CN(C)[C@@H](CS(C)(=O)=O)c1ccc(-c2ccc3ncnc(Nc4ccc(OCc5cccc(F)c5)c(Cl)c4)c3c2)o1 [Compound 110, (R)—N-(4-(3-fluorobenzyl-oxy)-3-chlorophenyl)-6-(5-(1-(N,N-dimethyl-amino)-2-(methylsulfonyl)ethyl)-2-yl)quinazolin-4-amine], the “Relative Value (inal vs. Control) D16” value was 0.000. With CN(C)[C@H](CS(C)(=O)=O)c1ccc(-c2ccc3ncnc(Nc4ccc(OCc5cccc(F)c5)c(Cl)c4)c3c2)o1 [Compound 97, (S)—N-(4-(3-fluorobenzyloxy)-3-chlorophenyl)-6-(5-(1-(N,N-dimethyl-amino)-2-(methylsulfonyl)ethyl)furan-2-yl)quinazolin-4-amine] the “Relative Value (inal vs. Control) D16” value was 0.037. With CS(=O)(=O)CCNCc1ccc(-c2ccc3ncnc(Nc4ccc(OCc5cccc(F)c5)c(Cl)c4)c3c2)o1 [Lapatinib, reference compound] the “Relative Value (inal vs. Control) D16” value was 0.027.
